Measurements published in the supplement of paper PMC6411743.
± gives the standard deviation of the averaged measurements. The entries are a selection whose mix differs from that of the whole data set.

Experiments:
Test in all cases: NP40-soluble protein abundance relative to vehicle (solubility fold change) (ratio); higher = more soluble protein in presence of AMP-PNP
[1] = target: T1, C9JI46 and related entries (UniProt Q8N3X6)
T1 sequence (whole entry): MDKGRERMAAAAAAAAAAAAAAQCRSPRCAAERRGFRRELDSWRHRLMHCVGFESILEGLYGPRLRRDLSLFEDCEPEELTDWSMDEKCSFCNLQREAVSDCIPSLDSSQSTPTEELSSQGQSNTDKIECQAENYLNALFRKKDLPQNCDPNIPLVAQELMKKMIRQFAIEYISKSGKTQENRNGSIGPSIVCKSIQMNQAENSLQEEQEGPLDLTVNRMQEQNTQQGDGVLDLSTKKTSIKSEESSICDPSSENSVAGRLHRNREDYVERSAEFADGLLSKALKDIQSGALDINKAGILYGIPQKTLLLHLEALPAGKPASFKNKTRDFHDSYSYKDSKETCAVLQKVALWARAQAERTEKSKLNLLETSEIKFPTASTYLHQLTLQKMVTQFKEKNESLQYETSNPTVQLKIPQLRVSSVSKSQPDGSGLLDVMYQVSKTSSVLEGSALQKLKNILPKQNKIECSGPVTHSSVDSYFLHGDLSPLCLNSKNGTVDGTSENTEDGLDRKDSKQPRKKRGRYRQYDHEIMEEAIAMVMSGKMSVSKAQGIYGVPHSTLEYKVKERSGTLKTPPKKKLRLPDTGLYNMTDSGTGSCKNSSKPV
Summary of the method: (§1)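 Eight concentrations, 0.1 to 10 mM, were tested on Jurkat crude lysate for 10 min at room temperature and then 3 min at 37 °C, in three independent experiments. The lysate was solubilised with 0.8% NP40 and benzonase, ultracentrifuged, and the supernatant TMT-labelled for LC-MS/MS. Each value is the fold change against the detergent-processed vehicle in its own replicate, from vsn-normalised intensities.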

[2] = target: T2, C9JLB7 and related entries (UniProt Q96HP4)
T2 sequence (whole entry): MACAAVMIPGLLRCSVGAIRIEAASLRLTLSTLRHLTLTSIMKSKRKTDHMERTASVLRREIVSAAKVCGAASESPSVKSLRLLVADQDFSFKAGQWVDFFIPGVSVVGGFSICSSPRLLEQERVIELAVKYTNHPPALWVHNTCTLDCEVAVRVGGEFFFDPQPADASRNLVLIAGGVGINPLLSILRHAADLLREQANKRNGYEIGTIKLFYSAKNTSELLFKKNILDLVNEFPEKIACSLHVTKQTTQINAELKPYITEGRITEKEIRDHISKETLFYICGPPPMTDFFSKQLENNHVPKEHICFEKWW
Summary of the method: as §1

[3] = target: T3, D6R9V8 and related entries (UniProt Q9UKY7)
T3 sequence (whole entry): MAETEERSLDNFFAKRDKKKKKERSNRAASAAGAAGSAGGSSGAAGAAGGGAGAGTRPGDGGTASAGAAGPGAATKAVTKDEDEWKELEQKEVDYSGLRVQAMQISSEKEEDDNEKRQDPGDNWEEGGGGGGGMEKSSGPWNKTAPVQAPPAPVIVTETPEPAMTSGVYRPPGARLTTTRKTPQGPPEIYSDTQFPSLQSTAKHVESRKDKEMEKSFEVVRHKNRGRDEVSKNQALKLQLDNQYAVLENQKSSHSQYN
Summary of the method: as §1

[4] = target: T4, UniProt A2RTX5 and related entries
T4 sequence (whole entry): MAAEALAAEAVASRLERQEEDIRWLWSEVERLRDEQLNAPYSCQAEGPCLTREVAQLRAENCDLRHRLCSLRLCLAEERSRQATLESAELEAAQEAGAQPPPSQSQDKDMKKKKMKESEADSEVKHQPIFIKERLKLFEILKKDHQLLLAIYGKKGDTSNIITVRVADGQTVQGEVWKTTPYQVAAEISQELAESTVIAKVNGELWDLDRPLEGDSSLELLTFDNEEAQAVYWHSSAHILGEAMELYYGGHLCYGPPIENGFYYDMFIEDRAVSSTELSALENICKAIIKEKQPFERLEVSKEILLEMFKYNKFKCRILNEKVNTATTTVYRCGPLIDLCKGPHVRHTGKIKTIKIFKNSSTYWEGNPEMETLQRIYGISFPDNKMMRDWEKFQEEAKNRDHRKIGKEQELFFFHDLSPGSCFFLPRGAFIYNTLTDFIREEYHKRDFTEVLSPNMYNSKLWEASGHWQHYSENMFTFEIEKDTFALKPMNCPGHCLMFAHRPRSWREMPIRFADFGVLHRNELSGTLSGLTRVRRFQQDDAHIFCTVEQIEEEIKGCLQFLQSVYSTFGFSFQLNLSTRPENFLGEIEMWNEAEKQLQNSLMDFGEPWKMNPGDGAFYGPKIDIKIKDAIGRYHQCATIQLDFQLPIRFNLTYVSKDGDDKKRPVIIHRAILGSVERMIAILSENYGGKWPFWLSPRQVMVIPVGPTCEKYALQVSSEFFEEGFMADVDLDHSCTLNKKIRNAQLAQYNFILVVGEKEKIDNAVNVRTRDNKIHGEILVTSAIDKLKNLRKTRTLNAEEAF
Summary of the method: as §1

Nc1ncnc2c1ncn2[C@@H]1O[C@H](COP(=O)(O)OP(=O)(O)NP(=O)(O)O)[C@@H](O)[C@H]1O [adenylyl imidodiphosphate] was tested, and the NP40-soluble protein abundance ([1]; concentration: 2mM) was 1.024 ± 0.0091, the NP40-soluble protein abundance ([1]; concentration: 4mM) was 1.01 ± 0.058 and the NP40-soluble protein abundance ([1]; concentration: 6mM) was 0.992 ± 0.017. The NP40-soluble protein abundance ([1]; concentration: 8mM) was 0.952 ± 0.014, the NP40-soluble protein abundance ([1]; concentration: 10mM) was 1 ± 0.039 and the NP40-soluble protein abundance ([2]; concentration: 1mM) was 1.01 ± 0.019. For the same compound, the NP40-soluble protein abundance ([2]; concentration: 2mM) was 0.96 ± 0.029, the NP40-soluble protein abundance ([2]; concentration: 4mM) was 0.976 ± 0.037 and the NP40-soluble protein abundance ([2]; concentration: 6mM) was 0.984 ± 0.022. The NP40-soluble protein abundance ([2]; concentration: 8mM) was 0.98 ± 0.045, the NP40-soluble protein abundance ([2]; concentration: 10mM) was 0.935 ± 0.044 and the NP40-soluble protein abundance ([3]; concentration: 1mM) was 1.03 ± 0.021. The NP40-soluble protein abundance ([3]; concentration: 2mM) was 1.09 ± 0.089, the NP40-soluble protein abundance ([3]; concentration: 4mM) was 1.03 ± 0.034 and the NP40-soluble protein abundance ([3]; concentration: 6mM) was 1.04 ± 0.034. For the same compound, the NP40-soluble protein abundance ([3]; concentration: 8mM) was 0.993 ± 0.028, the NP40-soluble protein abundance ([3]; concentration: 10mM) was 1.05 ± 0.07 and the NP40-soluble protein abundance ([4]; concentration: 1mM) was 1.05 ± 0.021. It also gave an NP40-soluble protein abundance ([4]; concentration: 2mM) of 0.998 ± 0.05, an NP40-soluble protein abundance ([4]; concentration: 4mM) of 1 ± 0.047 and an NP40-soluble protein abundance ([4]; concentration: 6mM) of 0.974 ± 0.03. It also gave an NP40-soluble protein abundance ([4]; concentration: 8mM) of 0.989 ± 0.033 and an NP40-soluble protein abundance ([4]; concentration: 10mM) of 0.987 ± 0.039.
